# Out of some 53,000 sequences screened, about 3,700 (7%) were called active.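 Rule for the calls: active = gene knockdowns whose robust z-score for IL-1 alpha signal is at least 2 or at most -2, so actives lie on both sides; inactive = the rest.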 This is one part of the list.
# Assay: Components of the Cytosolic LPS Sensing Pathway: Gene Identification via Genome-wide siRNA Screen;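 note: robust z of the log signal after scaling to non-targeting control siRNA wells of the plate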
# Settings: RAW264.7 macrophages, IL-1a HTRF, actives lie on both sides, screened at 100 nM (by protocol), cells primed 5 h with Pam3CSK4 first
# Summary of the method: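 IL-1a HTRF of supernatants after 24 hour LipidA transfection of Pam3CSK4-primed (5 hours) RAW264.7 cells, 48h post-siRNA transfection (100 nM). Scores: percent of plate negative-control median, then log-based robust z-score.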
row,Sequence,z-score
1,CGUGCAGAUACCACUUCACTT against Podn,inactive: -0.457
2,GGUGUGUUAUCGAUUUUACTT against Fut2,inactive: -0.0965
3,GGCUCUUACAUAAACUCUATT against Tecta,inactive: 0.987
4,GCACAAACCCUCGAACUUGTT against Nkx6-2,inactive: 1.55
5,GGCAUGUUGAUGGGAAUUUTT against Srp9,inactive: 0.536
6,GGUGCUGAAGAUGUGUUGATT against Phospho1,inactive: 0.564
7,GGGCCUCCUUCUCAUCAUUTT against Scarf2,inactive: 0.9
8,GGUCCAUGGGUAAGAGGAUTT against Vmn1r43,inactive: 1.2
9,GGUGAAGUAUUUGACUAUUTT against Mark3,inactive: 0.281
10,CGUGCACUUAGAAAACCCGTT against Garnl3,inactive: -1.4
11,CCGUUUUUCAACGACGAGUTT against Fcna,inactive: 0.337
12,GCUACAGACUGAACAAUGATT against Rbm17,active: -2.08
13,CCGUUACUACAAAUUCUAUTT against Zcchc8,inactive: -0.48
14,GGCAACACCAUCACCGAGATT against Nsmce3,inactive: -0.0349
15,CCAUAUUUGAAGAAGUCCATT against Espl1,inactive: -0.325
16,CUAUUUGGUAGCCUAACUUTT against Acsl1,inactive: -0.413
17,GGCAAAUAUUCAGUUUGGATT against Scarb2,inactive: -0.00406
18,GGCUCUAUCCACCAGUAAUTT against Cyp4a14,inactive: -0.601
19,GCCAAGUUCAUUGGUGCUGTT against Atp5g1,inactive: -1.12
20,GGAGAGUGAAGUGAAAAGCTT against Dhrs1,inactive: -0.351
21,CCUUAGCUAAAUUUACUGGTT against Bche,inactive: 0.528
22,GGGUGAAAUACUUCUUUGATT against Cxcl15,inactive: -0.0783

# Random excerpt: two records from the list, in no set order.
row,Sequence,z-score
1,CGUGCAGAUACCACUUCACTT against Podn,inactive: -0.457
7,GGGCCUCCUUCUCAUCAUUTT against Scarf2,inactive: 0.9

# (cont.)

row,Sequence,z-score
1,GGUGAUUAAGAAAGAGGAUTT against Exosc8,inactive: 1.56
2,GCUCCAUUUCAGUCAUCGATT against Klrc1,inactive: -1.05
3,CCAUAAGAAAGGAGACUAGTT against Il33,inactive: -0.85
4,GGCCAAGAAGGUGUGGUACTT against Zmat5,inactive: -1.72
5,GCUCGUUCUGAAGAUAAGUTT against Isg20l2,inactive: -0.191
6,GGCAGUGUUGACCAACAUGTT against Map3k21,inactive: 0.427
7,GCGCAUCCUAUUCCAGCACTT against Pctp,inactive: -0.59
8,CCAAGACCAUCCAAUUCAUTT against Il6,inactive: 0.0458
9,GCCAUUCUAGGAACUCUGATT against Thrap3,inactive: -1.3
10,GCAAAGUACCCACCUUUGUTT against Pitpna,active: 2.06
11,GGACGCGGGAAAAAUGUUCTT against Hnrnpab,inactive: 1.37
12,GGUGGACACAUAUAGUCCCTT against Col27a1,inactive: 1.5
13,GGAGUUAAGCUAGAGAACUTT against Arsj,inactive: -0.648
14,GGGAUACUCCAAGUUCCAUTT against Muc4,active: 2.85
15,CCACAUCUCGCAAACACGATT against Ankrd34a,inactive: -1.76
16,GCCCGGAGAACAUGAUUAUTT against Tead4,inactive: 1.11
17,GGAGAAAUGUGAUGUACAATT against Mob3a,inactive: 1.54
18,GGGAAUAUCACAGGUGCCATT against Axl,inactive: -0.737
19,GGAACAUCACAGAAGCUACTT against Olfr141,inactive: -0.519
20,CGGAAUGUAGGACACGAAUTT against Ltb,inactive: -0.267
21,GCCUCUCUAUGUGCACCACTT against Vmn1r5,inactive: -1.26
22,GGGAAGUCCAAAUAACGGATT against Zfp184,inactive: 0.136

row,Sequence,z-score
1,GCAGCAUAGAGACUAAAUCTT against Usp17la,inactive: 0.604
2,UCAACUGCUUAGAGCAUGUTT against Tmem259,inactive: 0.653
3,GCUAGAUGCUACGAGAUUGTT against Tipin,inactive: 0.305
4,GGUGGACAUGCUGAAGUUGTT against Naga,inactive: -0.84
5,GUCUUUCCCUAAAAACAGCTT against Vmn1r47,inactive: -1.28
6,GGCUUCCUAUCUGAUUACUTT against Acsl4,inactive: 0.498
7,GCUAUACGUACAAUGGCAATT against Prrg2,inactive: -1.7
8,CCGGUAUUACAACAAGUACTT against Atp5j2,inactive: 1.01
9,GUUGAUGAUAGAUCGUCAATT against Fbxw24,inactive: 0.358
10,GCAUGUGAUGCUACGUAUATT against Fmr1,inactive: -0.742
11,GCUCAUUGGAUGUUGCUGATT against Elf1,inactive: -0.069
12,UAUCGUCCACAACUACUCATT against Epn1,inactive: 1.14
13,CCACUACUUUCCUACAAAUTT against Stard8,inactive: 0.181
14,GGCUCAGUGAGUUUCAGAATT against Snx25,active: 3.66
15,GGAAGGACUUAAAUGAUGCTT against Rnf187,inactive: -1.18
16,GCUGAUGUGAACUCAUCAUTT against Atp5md,inactive: -0.173
17,GGAUAUCAACUCUUGCUUUTT against Gmcl1,inactive: 1.26
18,CCAUCUUGGGUUCUGGUCATT against Zc3h4,inactive: -0.204
19,CGAGUUAGUUUUUCUGGGCTT against Tctex1d4,inactive: 0.997
20,CCCAAUAACAUCUUAAGAUTT against Lyn,inactive: -0.254
21,GCCCAACCCAUCAUAGAUCTT against Puf60,inactive: 1.6
22,GAAUGUUCCUCAUGUCGUCTT against Olfr65,inactive: -0.452

row,Sequence,z-score
1,GGCAUGAUGUUCAUGGAUATT against Nup62,active: -2.04
2,GCCAUCAUCUUUGUUUAGUTT against Gm4952,inactive: -0.684
3,GUCACCAGACUUGUGUGGATT against Svs3b,inactive: -0.726
4,GGCAUUUUAGUAAUAAGCATT against Mkln1,inactive: -1.84
5,AACACGGCUCUAGCCAAUCTT against Ypel4,inactive: -1.25
6,GGAAGUUGACUCCAUUUCCTT against Gpr143,inactive: 1.22
7,GGAACGAAUGAAAAGACUUTT against Tpp2,inactive: 0.35
8,GGACAAUCAGGAAUCAUAUTT against Recql,inactive: -1.94
9,GGUACACAAACAAGUAUUCTT against Eif3d,inactive: 1.29
10,GGAGCCUCCAUAGAAACCATT against Klk1b9,inactive: -0.863
11,GGAGAAGUAUGGAGAGAUUTT against U2af1l4,inactive: 0.47
12,GGAAGUCCAGGGAUACAUGTT against Erbb2,inactive: -1.31
13,GCAGUUGGGCUCCUAUGAUTT against Mrps16,inactive: -0.482
14,GGCCUCUACUUCUUUGAAUTT against Cmtm6,inactive: -1.19
15,CCCAAUGCAUCUCUGCUCATT against Hepacam2,inactive: -0.203
16,GGUGAUUCUGGAUAAAUACTT against Tmprss4,inactive: -0.94
17,CCACAGCAAGAUGUGUAUGTT against Rnf125,inactive: -1.68
18,GGAAAUGACUUGUGAUGAUTT against Pik3ap1,inactive: -0.653
19,CCCACAGGUUCAAGAACCGTT against Usf3,inactive: 0.608
20,GGCUUCCACGUAAUUGUCCTT against Six3os1,inactive: 0.649
21,GGAGCUGAGGAGAAAGACATT against Rdh16f2,inactive: 1.3
22,UUAUUCUCACUGGUUUGUATT against Olfr746,inactive: -0.655

# A different layout for some results above.
row	Sequence	z-score
2	GCCAUCAUCUUUGUUUAGUTT against Gm4952	inactive: -0.684
7	GGAACGAAUGAAAAGACUUTT against Tpp2	inactive: 0.35
8	GGACAAUCAGGAAUCAUAUTT against Recql	inactive: -1.94
20	GGCUUCCACGUAAUUGUCCTT against Six3os1	inactive: 0.649
22	UUAUUCUCACUGGUUUGUATT against Olfr746	inactive: -0.655

# Next records.

row,Sequence,z-score
1,GGAAUUACUGGCCUGGGUATT against Nox3,inactive: 0.767
2,GGAGCUGUCUAAUCAUAAUTT against Clasp2,inactive: -0.109
3,GGAACUGGAACACAUGGUUTT against Dtd1,inactive: -0.641
4,GCAACAGUUGGUCUAAAAUTT against Psma1,active: -2.11
5,GGAGUUACGUAGAACUACCTT against Adam25,inactive: 0.543
6,GGAUGUCAGAGAUAUAUUUTT against Fbh1,inactive: -0.61
7,GCUCGAUCCCUCUUUCAUCTT against Mpst,inactive: -1.25
8,CCCUAGAAUUGCUACAGUCTT against Tcea1,inactive: 1.76
9,CGGAAGUGUCAAAACCAGATT against Zbtb49,inactive: -0.642
10,GGCUGUGAGAUAGAUCUAATT against Arhgef40,active: 2.07
11,GGUGGCUUGAGCAGAAUCUTT against Cngb1,inactive: -0.286
12,GGUUCUUGGUUUACAUAAGTT against Slc39a12,inactive: -1.23
13,GGCCUCUUUUCUGCUGCUUTT against Krt12,inactive: -0.427
14,GGUAGAUAACCUGAUUUAUTT against Slc7a6,active: 2.22
15,GGUGAGGAGCUGGAUAACATT against Smc4,inactive: 0.246
16,GGACAGGACAGCUUUGCACTT against Poteg,inactive: 0.205
17,GCAAUUACCAGUAUGCUACTT against Tbx19,inactive: 0.914
18,GCUACUCUACUGAACAGAATT against Olfr472,inactive: 1.16
19,GGCUUAAUUGCUAGCCAAGTT against Slc7a13,inactive: 0.849

# From PubChem BioAssay AID1508600 (Functional Genomics Laboratory (NCATS/FGL), 2020)
